{"source": "PubChem BioAssay AID485298", "about": "(National Center for Advancing Translational Sciences (NCATS), 2010)", "note": "In all, about 320,000 compounds went through this assay and about 740 (0.23%) were called active. Inconclusive means that the source gave no clear call. Such entries were picked first, then a sample of the others. The call rests on the fitted dose curve; in most records, active means well fitted activation curve with a large enough effect; inconclusive means small, poorly fitted or top-dose-only effect; inactive means no such curve, though single readings can be large or run the other way. Potencies of inconclusive entries are doubtful fits and often do not repeat. Potency means the concentration at half of the fitted maximal effect."}
{"experiment": "qHTS Assay for Small Molecule Inhibitors of Mitochondrial Division or Activators of Mitochondrial Fusion; further: nearly all actives have a fitted effect of over 45% in size", "conditions": "S. cerevisiae fusion-defective mutant growth rescue, CellTiterGlo 48 h; series mostly up to 46.1 µM", "outline": "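Temperature-sensitive fusion-defective S. cerevisiae (e.g. fzo1-1, mgm1-5) were grown with compound in YPEG medium (3% ethanol, 3% glycerol) for 48 hours at 37C. Growth rescue was measured as viability by CellTiterGlo luminescence after 10 minutes at ambient.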"}
{"smiles": "COc1ccc(NC(=O)C2CCCO2)cc1", "note": "(configuration not stated)", "Potency": "inactive"}
{"smiles": "CC1CN(C(=O)CCC(=O)N2CCN(c3cccc(C(F)(F)F)c3)CC2)c2ccccc2O1", "note": "(configuration not stated)", "Potency": "inconclusive: 22.4 µM [activator, single point]"}
{"smiles": "O=C(COc1ccccc1Cl)NC(=O)NC1CCCCC1", "Potency": "inconclusive: 25.1 µM [activator, single point]"}
{"smiles": "COc1ccccc1C(=O)NC(CCSC)C(=O)N1CCC(Cc2ccccc2)CC1", "note": "(configuration not stated)", "Potency": "inconclusive: 25.1 µM [activator, single point]"}
{"smiles": "Cc1cccc(NC(=O)c2ccc(C(=O)c3ccccc3)cc2)n1", "Potency": "inconclusive: 15.8 µM [activator, single point]"}
{"smiles": "O=C(COc1ccccc1Cl)NC(=S)N1CCc2ccccc21", "Potency": "inactive"}
{"smiles": "O=C(Nc1cccc(-c2cnc3ccccc3n2)c1)C1CC(=O)N(c2ccccc2)C1", "note": "(configuration not stated)", "Potency": "inactive"}
{"smiles": "CCc1c(C)[nH]c2nc3ccccc3n2c1=O", "Potency": "inactive"}
{"smiles": "COc1cccc(NC(=S)N(CCc2c(C)[nH]c3ccccc23)Cc2ccco2)c1", "Potency": "inconclusive: 35.5 µM [activator, single point]"}
{"smiles": "CC(C)(C)C(=O)NNc1nc(-c2ccccc2)c2cc(Br)ccc2n1", "Potency": "inconclusive: 35.5 µM [activator, partial curve]"}
{"smiles": "O=C(Nc1nnc(-c2ccccn2)o1)c1cccc(Cl)c1", "Potency": "inconclusive: 22.4 µM [activator, single point]"}
{"smiles": "Clc1ccc(-c2nnnn2-c2ccc(Cl)c(Cl)c2)cc1Cl", "Potency": "inconclusive: 14.1 µM [activator, partial curve]"}
{"smiles": "COc1cccc2c(=O)c(SC(F)(F)C(F)C(F)(F)F)c(C)[nH]c12", "note": "(configuration not stated)", "Potency": "inactive"}
{"smiles": "C=CCSc1ncc(-c2ccccc2)cn1", "Potency": "inactive"}
{"smiles": "O=C(COc1ccc(F)cc1Br)Nc1ccccc1N1CCOCC1", "Potency": "inconclusive: 17.8 µM [activator, single point]"}
{"smiles": "COc1ccc(Nc2nc(C(=O)N3CCc4ccccc4C3)cs2)cc1", "Potency": "inconclusive: 0.631 µM [activator, full curve, poor fit]"}
{"smiles": "CCN(CC)S(=O)(=O)c1ccc(Cl)c(NC(=S)NC(=O)C2CCCC2)c1", "Potency": "inconclusive: 35.5 µM [activator, single point]"}
{"smiles": "C[C@@H]1CC=C[C@H]2[C@H]1C(=O)N(Cc1ccccc1)[C@H]2c1ccc2ccccc2c1Br", "Potency": "inconclusive: 11.2 µM [activator, partial curve]"}
{"smiles": "COc1cc(/C=C/c2ccc3cccc(O)c3n2)c(Br)cc1O", "Potency": "inconclusive: 10 µM [activator, partial curve]"}
{"smiles": "CCO/C=C/C(O)(CNC(=O)c1ccc(C(C)(C)C)cc1)C(F)(F)F", "note": "(configuration not stated)", "Potency": "inactive"}
{"smiles": "O=C(NCCc1ccccc1)c1cnn2c(C(F)F)cc(C3CC3)nc12", "Potency": "inconclusive: 15.8 µM [activator, single point]"}
{"smiles": "O=C(CN(C(=O)Cn1nnc(-c2ccc(F)cc2)n1)c1cccc(F)c1)NC1CCCC1", "Potency": "inconclusive: 20 µM [activator, single point]"}
{"smiles": "CN(CC(=O)NC(=O)NCc1ccccc1)Cc1ccc(Cl)c(Cl)c1", "Potency": "inconclusive: 22.4 µM [activator, single point]"}
{"smiles": "COc1cc(-c2nc3ccc(C)cn3c2Nc2ccc3c(c2)OCCO3)ccc1O", "Potency": "inconclusive: 17.8 µM [activator, single point]"}
{"smiles": "Cc1ccccc1Oc1nc2c(C)cccn2c(=O)c1/C=C(\\C#N)C(=O)NC1CCS(=O)(=O)C1", "note": "(configuration not stated)", "Potency": "inconclusive: 12.6 µM [activator, partial curve]"}
{"smiles": "NC[C@H]1O[C@@H](n2cnc3c(N)ncnc32)[C@H](O)[C@@H]1O", "Potency": "inconclusive: 0.0291 µM [activator, full curve, poor fit]"}
{"smiles": "CC(=O)c1c(O)ccc2c(-c3ccccc3)cc(=O)oc12", "Potency": "inconclusive: 20 µM [activator, partial curve]"}
{"smiles": "Cc1ccn2cc(C34CC5CC(CC(C5)C3)C4)nc2c1", "Potency": "inactive"}
{"smiles": "NCCCCCc1nnc(SCc2ccccc2Cl)o1", "Potency": "inactive"}
{"smiles": "CCCCc1cc2c(s1)CCCC/C2=N/O", "Potency": "inconclusive: 15.8 µM [activator, single point]"}
{"smiles": "Cc1ccc2oc(-c3cccc(N)c3)nc2c1", "Potency": "inactive"}
{"smiles": "CCOC(=O)N/N=C/c1c(C)nn(-c2cccc(C(F)(F)F)c2)c1Cl", "Potency": "inconclusive: 25.1 µM [activator, single point]"}
{"smiles": "Cc1noc(C)c1CSCC(=O)Nc1nc2ccc(Oc3ccccc3)cc2s1", "Potency": "inconclusive: 25.1 µM [activator, single point]"}
{"smiles": "CCOC(=O)c1sc(N)c(C(=O)Nc2ccccc2)c1C", "Potency": "inactive"}
{"smiles": "Cc1cc(/C=C2\\NC(=S)N(C)C2=O)ccc1N1CCCC1", "Potency": "inactive"}
{"smiles": "COc1ccc(-c2nn3c(C4CCCCC4)nnc3s2)cc1OC", "Potency": "inconclusive: 11.2 µM [activator, partial curve]"}
{"smiles": "O=C(c1cc2nc(-c3ccccc3)cc(-c3ccccc3)n2n1)N1CCN(C(=O)c2ccco2)CC1", "Potency": "inconclusive: 17.8 µM [activator, single point]"}
{"smiles": "CC1=C(C(=O)OCc2ccccc2)C(c2ccc(C(C)(C)C)cc2)NC(=O)N1CCCCCC(=O)O", "note": "(configuration not stated)", "Potency": "inconclusive: 35.5 µM [activator, single point]"}
{"smiles": "O=c1[nH]c(C2CC2)nc2sc3c(c12)CCCC3", "Potency": "inconclusive: 6.31 µM [activator, partial curve]"}
{"smiles": "Cc1ccc(-n2nnnc2SCC(=O)Nc2ccccc2-c2ccccc2)cc1C", "Potency": "inconclusive: 10 µM [activator, partial curve]"}
{"smiles": "COc1c(Cl)cc(Cl)cc1C(=O)Nc1ccc(C(=O)O)cc1", "Potency": "inconclusive: 14.1 µM [activator, partial curve]"}
{"smiles": "CN(C)c1ccc(NC(=O)CN2CCc3ccccc3C2)cc1", "Potency": "inactive"}
{"smiles": "CC1(C)Cc2[nH]c3ccccc3c2C(C)(C)N1", "Potency": "inconclusive: 3.55 µM [activator, single point]"}
{"smiles": "Cc1ccc(Nc2nc3ccccc3s2)c(C)c1", "Potency": "inconclusive: 31.6 µM [activator, single point]"}
{"smiles": "CC(=O)NCCN=C(C)c1sc2ccccc2c1O", "Potency": "inactive"}
{"smiles": "CC(C)c1ccc(NC2CCCN(C(=O)CCN3Cc4ccccc4C3=O)C2)cc1", "note": "(configuration not stated)", "Potency": "inactive"}
{"smiles": "Oc1ccc(Oc2ccc(Oc3ccc(O)cc3)cc2)cc1", "Potency": "inactive"}
{"smiles": "CCC1Nc2ncnc(N3CCN(c4ccccc4)CC3)c2N(Cc2ccc(Cl)cc2)C1=O", "note": "(configuration not stated)", "Potency": "inconclusive: 35.5 µM [activator, single point]"}
{"smiles": "CCn1cc([N+](=O)[O-])c(C(=O)Nc2ccn(C34CC5CC(CC(C5)C3)C4)n2)n1", "Potency": "inconclusive: 15.8 µM [activator, partial curve]"}
{"smiles": "O=C(NCc1n[nH]c(=S)n1-c1ccc(Br)cc1)c1cccs1", "Potency": "inconclusive: 25.1 µM [activator, single point]"}
{"smiles": "O=c1cc(-c2ccc(O)cc2)oc2cc(O)cc(O)c12", "Potency": "inconclusive: 18.4 µM [activator, single point]"}
{"smiles": "CCc1ccc(-c2cnc3ccccc3n2)cc1NC(=O)CNC(=O)c1ccccc1", "Potency": "inactive"}
{"smiles": "Cc1ccc(NC(=O)C(C)c2ccc([N+](=O)[O-])cc2)cc1Cl", "note": "(configuration not stated)", "Potency": "inconclusive: 28.2 µM [activator, single point]"}
{"smiles": "CC(NC(=O)CNC(=O)c1cccc(Cl)c1)c1ccccc1", "note": "(configuration not stated)", "Potency": "inconclusive: 6.31 µM [activator, partial curve]"}
{"smiles": "Cc1ccc(O)c(C(=O)c2cnc3c(c2)c(-c2ccc(F)cc2)c(C#N)c(=O)n3C)c1", "Potency": "inconclusive: 35.5 µM [activator, single point]"}
{"smiles": "COc1ccc(OC)c(N(CC(=O)NCc2cccnc2)S(C)(=O)=O)c1", "Potency": "inactive"}
{"smiles": "O=C(CSc1nc2ccccc2s1)NC1CCCc2ccccc21", "note": "(configuration not stated)", "Potency": "inconclusive: 28.2 µM [activator, single point]"}
{"smiles": "CCOC(=O)CCn1nc(-c2ccc(C)cc2)c2ccccc2c1=O", "Potency": "inconclusive: 12.6 µM [activator, partial curve]"}
{"smiles": "O=C(NC(=S)Nc1ccccc1)c1cccs1", "Potency": "inconclusive: 0.316 µM [activator, full curve, poor fit]"}
{"smiles": "O=C(CSCC(=O)Nc1ccccc1)N/N=C/c1c(O)ccc2ccccc12", "Potency": "inactive"}
{"smiles": "COc1ccc(NC(=O)N2CCC(C(=O)c3ccc(F)cc3)CC2)cc1", "Potency": "inactive"}
{"smiles": "Cc1cccc(NC(=O)c2cc(S(=O)(=O)N(C)c3ccc(F)cc3)ccc2Cl)n1", "Potency": "inconclusive: 20 µM [activator, single point]"}
{"smiles": "Cc1nnc(NC(=O)c2oc3ccccc3c2C)s1", "Potency": "inactive"}
{"smiles": "O=C(NCc1ccc2c(c1)OCO2)c1ccc(N2CCCCCC2)c([N+](=O)[O-])c1", "Potency": "inconclusive: 35.5 µM [activator, single point]"}
{"smiles": "CCCNc1ncnc2c1cnn2-c1ccc(OC)cc1", "Potency": "inconclusive: 3.55 µM [activator, full curve, poor fit]"}
{"smiles": "CCOc1ccc(NC(=O)CN2CCCC2c2cccs2)cc1S(=O)(=O)N1CCCCC1", "note": "(configuration not stated)", "Potency": "inactive"}
{"smiles": "Cc1cccc2cc(CN(Cc3nnnn3Cc3ccco3)C3CCCC3)c3nnnn3c12", "Potency": "inconclusive: 12.6 µM [activator, single point]"}
{"smiles": "CCCn1c(CN2CCN(C(C)=O)CC2)nc2cc(S(=O)(=O)N(C)C)ccc21", "Potency": "inconclusive: 4.47 µM [activator, single point]"}
{"smiles": "Cc1oc(-c2ccc3c(c2)OCCO3)cc1C(=O)NCC(=O)O", "Potency": "inconclusive: 12.6 µM [activator, partial curve]"}
{"smiles": "Cc1cc(C(=O)COC(=O)c2ccc[nH]c2=O)c(C)n1-c1ccccc1F", "Potency": "inactive"}
{"smiles": "CC(=C/c1ccccc1)/C=N/n1c(-c2ccco2)n[nH]c1=S", "Potency": "inactive"}
{"smiles": "CC(NC(=O)c1ccc2c(c1)OCO2)c1ccccc1", "note": "(configuration not stated)", "Potency": "inactive"}
